PubChem BioAssay AID602196, INSERM – 2012
Screen: 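Genes whose knock-down alters cisplatin killing of lung cancer cells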. System: human A549 lung cancer cells. Reagents: siRNA pair against human genes. Timing: 48 h transfection before cisplatin; time from cisplatin to read-out not stated. Challenge: cisplatin at a dose killing half of control-siRNA cells; exact dose and duration not given. Measurement: 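Shift in cisplatin death relative to control siRNA, from -50 (all cells die) to +50 (no cells die); siRNAs harmful on their own scored 0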. Direction: two-siRNA summed score (-2 to +2): higher = both siRNAs protect from cisplatin killing; -2 means both sensitise. Hit rule: 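Each siRNA scores 0 if harmful alone by LDH or WST-1, otherwise +1 if it reduces and -1 if it increases cisplatin killing; a gene is active when both siRNAs agree (sum +2 or -2)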. Meaning of the calls: active = both siRNAs shift cisplatin killing the same way; inactive = no consistent shift, or siRNA harmful alone.
In all, the deposit lists about 23,000 reagents; below is a random part of them. 455 of all reagents (2%) were called active. 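Active includes both protection and sensitisation; some change values fall well beyond the stated -50 to +50 range.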 Entries without a mark were called inactive. Not all columns of the deposit are shown. No sequences are given here. Not given: the amount of reagent.

After knock-down of RER1 (retention in endoplasmic reticulum sorting receptor 1) the results were two-siRNA summed score (-2 to +2) = 0.
Against MADD (MAP kinase activating death domain), the entry reads two-siRNA summed score (-2 to +2) = 1.
After knock-down of MRPS2 (mitochondrial ribosomal protein S2) the results were two-siRNA summed score (-2 to +2) = 0.
After knock-down of MAPRE2 (microtubule associated protein RP/EB family member 2), the screen gave two-siRNA summed score (-2 to +2) = -1.
OLFML1 (olfactomedin like 1) showed two-siRNA summed score (-2 to +2) = 1.
Depletion of ATF7IP (activating transcription factor 7 interacting protein) came out at: two-siRNA summed score (-2 to +2) = 0.
Silencing of TM6SF1 (transmembrane 6 superfamily member 1) resulted in: two-siRNA summed score (-2 to +2) = 0.
After knock-down of LOC286042 the results were two-siRNA summed score (-2 to +2) = -1.
For RAC1 (Rac family small GTPase 1) the deposit lists two-siRNA summed score (-2 to +2) = 1.
For SMOX (spermine oxidase), the values are two-siRNA summed score (-2 to +2) = 0.
After knock-down of CERS6 (ceramide synthase 6), the record shows two-siRNA summed score (-2 to +2) = -1.
Depletion of LOC440768 came out at: two-siRNA summed score (-2 to +2) = 1.
After knock-down of ATP6V1C2 (ATPase H+ transporting V1 subunit C2), the record shows two-siRNA summed score (-2 to +2) = 0.
After knock-down of USP20 (ubiquitin specific peptidase 20), the screen gave two-siRNA summed score (-2 to +2) = 0.
With knock-down of C18orf54 (chromosome 18 open reading frame 54) the results were two-siRNA summed score (-2 to +2) = 0.
SMYD5 (SMYD family member 5) scored two-siRNA summed score (-2 to +2) = -1.
After knock-down of THOC2 (THO complex subunit 2) the results were two-siRNA summed score (-2 to +2) = 1.
CMPK1 (cytidine/uridine monophosphate kinase 1) gave two-siRNA summed score (-2 to +2) = 0.
Depletion of CLUH (CLUH binding protein of NUMT mRNA) resulted in: two-siRNA summed score (-2 to +2) = 0.
After knock-down of MRPL58 (mitochondrial ribosomal protein L58), the screen gave two-siRNA summed score (-2 to +2) = 0.
After knock-down of RTP1 (receptor transporter protein 1), the screen gave two-siRNA summed score (-2 to +2) = 0.
After knock-down of ARSJ (arylsulfatase family member J), the record shows two-siRNA summed score (-2 to +2) = 0.
Knock-down of LOC388339 came out at: two-siRNA summed score (-2 to +2) = 1.
Against CX3CL1 (C-X3-C motif chemokine ligand 1) the deposit lists two-siRNA summed score (-2 to +2) = 0.
Knock-down of NDUFB2 (NADH:ubiquinone oxidoreductase subunit B2) resulted in: two-siRNA summed score (-2 to +2) = 0.
ECRG4 (ECRG4 augurin precursor) gave two-siRNA summed score (-2 to +2) = 0.
Silencing of KDM6B (lysine demethylase 6B) came out at: two-siRNA summed score (-2 to +2) = 0.
Knock-down of LMAN2 (lectin, mannose binding 2) came out at: two-siRNA summed score (-2 to +2) = 0.
With knock-down of LOC440259, the screen gave two-siRNA summed score (-2 to +2) = 0.
After knock-down of TRIM39 (tripartite motif containing 39), the record shows two-siRNA summed score (-2 to +2) = 0.
For CPE (carboxypeptidase E), the entry reads two-siRNA summed score (-2 to +2) = 1.
